# Measured values as given in the supplement of paper PMC12595434, “Development of retinoid nuclear receptor pathway antagonists through targeting aldehyde dehydrogenase 1A3” (iScience, 2025).
# By UniProt entry, the sequences of proteins in these tests, tags left out. Where a name states a change or a piece, a line headed by the entry shows the natural chain unless it says otherwise.
# UniProt Q9H6E4: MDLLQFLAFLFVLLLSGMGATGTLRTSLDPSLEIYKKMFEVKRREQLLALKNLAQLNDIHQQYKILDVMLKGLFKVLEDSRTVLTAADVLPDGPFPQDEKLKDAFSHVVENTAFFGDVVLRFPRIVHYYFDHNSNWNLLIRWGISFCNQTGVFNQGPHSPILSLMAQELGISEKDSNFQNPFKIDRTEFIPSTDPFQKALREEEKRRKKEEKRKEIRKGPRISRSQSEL
# UniProt Q9H869: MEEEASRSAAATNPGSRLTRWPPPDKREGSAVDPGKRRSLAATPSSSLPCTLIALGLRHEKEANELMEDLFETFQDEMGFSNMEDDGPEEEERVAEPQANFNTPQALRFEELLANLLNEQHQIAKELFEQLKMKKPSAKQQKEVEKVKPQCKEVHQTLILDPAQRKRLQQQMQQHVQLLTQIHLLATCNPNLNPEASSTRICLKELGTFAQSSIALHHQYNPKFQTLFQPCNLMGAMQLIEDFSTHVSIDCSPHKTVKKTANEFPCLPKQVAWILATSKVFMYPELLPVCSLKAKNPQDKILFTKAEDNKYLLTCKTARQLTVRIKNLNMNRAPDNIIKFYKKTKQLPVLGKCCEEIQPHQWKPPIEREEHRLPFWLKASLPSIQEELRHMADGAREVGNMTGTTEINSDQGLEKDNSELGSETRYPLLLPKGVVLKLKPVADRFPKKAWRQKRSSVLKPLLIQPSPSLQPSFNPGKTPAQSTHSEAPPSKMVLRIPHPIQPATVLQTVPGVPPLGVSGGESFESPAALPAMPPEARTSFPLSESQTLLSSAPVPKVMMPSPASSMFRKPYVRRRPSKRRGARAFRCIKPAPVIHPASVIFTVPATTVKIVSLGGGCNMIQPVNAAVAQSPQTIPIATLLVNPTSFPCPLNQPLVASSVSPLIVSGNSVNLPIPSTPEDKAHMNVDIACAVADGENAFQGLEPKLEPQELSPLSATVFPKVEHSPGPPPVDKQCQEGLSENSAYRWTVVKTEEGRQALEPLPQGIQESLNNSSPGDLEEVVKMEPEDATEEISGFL
# UniProt Q9BZL4: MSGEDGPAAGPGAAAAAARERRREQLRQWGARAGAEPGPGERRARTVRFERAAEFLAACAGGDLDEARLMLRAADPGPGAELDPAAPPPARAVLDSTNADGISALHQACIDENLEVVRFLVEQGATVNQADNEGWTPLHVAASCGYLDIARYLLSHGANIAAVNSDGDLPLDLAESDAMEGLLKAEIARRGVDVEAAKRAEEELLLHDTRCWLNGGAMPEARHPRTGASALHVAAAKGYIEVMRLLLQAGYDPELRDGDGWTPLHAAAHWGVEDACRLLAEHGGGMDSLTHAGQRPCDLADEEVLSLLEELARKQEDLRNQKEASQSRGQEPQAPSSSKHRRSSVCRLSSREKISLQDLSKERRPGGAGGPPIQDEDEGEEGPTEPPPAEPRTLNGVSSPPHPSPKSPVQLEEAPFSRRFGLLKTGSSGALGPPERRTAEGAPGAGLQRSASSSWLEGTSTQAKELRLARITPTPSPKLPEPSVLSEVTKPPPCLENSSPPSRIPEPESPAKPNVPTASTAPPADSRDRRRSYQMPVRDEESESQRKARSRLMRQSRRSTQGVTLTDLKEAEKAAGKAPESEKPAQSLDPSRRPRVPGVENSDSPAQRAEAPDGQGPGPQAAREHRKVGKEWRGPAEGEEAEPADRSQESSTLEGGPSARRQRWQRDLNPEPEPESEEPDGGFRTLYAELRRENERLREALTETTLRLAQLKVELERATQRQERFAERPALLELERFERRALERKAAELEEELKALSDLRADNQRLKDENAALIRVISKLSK
# UniProt Q9H1H9: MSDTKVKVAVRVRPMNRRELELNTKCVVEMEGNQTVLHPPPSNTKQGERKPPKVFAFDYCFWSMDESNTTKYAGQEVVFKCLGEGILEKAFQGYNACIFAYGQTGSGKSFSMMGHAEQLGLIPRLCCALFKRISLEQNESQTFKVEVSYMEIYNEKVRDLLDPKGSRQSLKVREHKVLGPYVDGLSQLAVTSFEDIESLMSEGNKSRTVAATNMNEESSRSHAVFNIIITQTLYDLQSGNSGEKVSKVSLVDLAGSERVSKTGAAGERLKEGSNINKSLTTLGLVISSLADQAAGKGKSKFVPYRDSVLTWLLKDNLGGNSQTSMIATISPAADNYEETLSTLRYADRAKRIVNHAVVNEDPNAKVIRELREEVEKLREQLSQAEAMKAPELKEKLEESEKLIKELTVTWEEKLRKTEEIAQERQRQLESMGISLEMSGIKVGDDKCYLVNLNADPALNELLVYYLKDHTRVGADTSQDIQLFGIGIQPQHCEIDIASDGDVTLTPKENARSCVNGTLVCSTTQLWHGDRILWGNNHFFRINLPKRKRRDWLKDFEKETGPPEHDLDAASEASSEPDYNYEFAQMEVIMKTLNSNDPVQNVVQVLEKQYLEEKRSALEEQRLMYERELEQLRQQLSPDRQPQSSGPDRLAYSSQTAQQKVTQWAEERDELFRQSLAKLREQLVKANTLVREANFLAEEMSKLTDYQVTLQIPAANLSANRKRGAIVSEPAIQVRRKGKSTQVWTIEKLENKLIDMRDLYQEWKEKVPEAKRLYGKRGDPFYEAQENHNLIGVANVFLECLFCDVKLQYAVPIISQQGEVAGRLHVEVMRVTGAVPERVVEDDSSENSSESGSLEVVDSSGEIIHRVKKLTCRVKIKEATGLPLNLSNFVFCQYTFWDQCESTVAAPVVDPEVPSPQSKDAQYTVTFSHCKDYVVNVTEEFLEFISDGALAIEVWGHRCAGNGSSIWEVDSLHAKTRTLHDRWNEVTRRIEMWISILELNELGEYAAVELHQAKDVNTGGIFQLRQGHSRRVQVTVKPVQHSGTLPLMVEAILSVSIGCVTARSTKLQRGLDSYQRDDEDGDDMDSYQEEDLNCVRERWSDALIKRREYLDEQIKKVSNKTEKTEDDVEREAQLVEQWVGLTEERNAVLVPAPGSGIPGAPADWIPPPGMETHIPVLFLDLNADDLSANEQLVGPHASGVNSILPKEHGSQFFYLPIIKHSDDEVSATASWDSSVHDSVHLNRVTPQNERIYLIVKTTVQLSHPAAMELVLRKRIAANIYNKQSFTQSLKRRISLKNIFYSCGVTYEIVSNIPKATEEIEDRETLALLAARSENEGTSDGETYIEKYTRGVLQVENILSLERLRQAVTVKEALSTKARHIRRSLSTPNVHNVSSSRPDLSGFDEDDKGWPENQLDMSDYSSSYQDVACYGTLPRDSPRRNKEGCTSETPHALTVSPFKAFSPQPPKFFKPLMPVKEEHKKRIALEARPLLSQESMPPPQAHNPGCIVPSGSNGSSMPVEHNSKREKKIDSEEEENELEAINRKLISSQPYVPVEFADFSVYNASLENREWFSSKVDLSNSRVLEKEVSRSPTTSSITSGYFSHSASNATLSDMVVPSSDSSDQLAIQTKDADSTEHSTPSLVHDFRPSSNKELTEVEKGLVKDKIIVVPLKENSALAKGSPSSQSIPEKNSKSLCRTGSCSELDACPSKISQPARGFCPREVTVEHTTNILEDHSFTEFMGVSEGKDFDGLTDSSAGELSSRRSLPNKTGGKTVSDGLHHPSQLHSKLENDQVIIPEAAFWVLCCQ
# UniProt Q9H3K6: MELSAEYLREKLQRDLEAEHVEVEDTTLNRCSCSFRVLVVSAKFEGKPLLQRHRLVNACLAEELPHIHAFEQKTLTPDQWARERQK
# UniProt Q9GZX9: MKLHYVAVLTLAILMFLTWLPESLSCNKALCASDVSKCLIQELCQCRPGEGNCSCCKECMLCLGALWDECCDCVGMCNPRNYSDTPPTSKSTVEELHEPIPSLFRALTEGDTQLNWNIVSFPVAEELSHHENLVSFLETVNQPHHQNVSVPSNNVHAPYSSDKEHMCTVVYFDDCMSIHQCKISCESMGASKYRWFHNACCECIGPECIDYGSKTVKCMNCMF
# UniProt Q9H0E3: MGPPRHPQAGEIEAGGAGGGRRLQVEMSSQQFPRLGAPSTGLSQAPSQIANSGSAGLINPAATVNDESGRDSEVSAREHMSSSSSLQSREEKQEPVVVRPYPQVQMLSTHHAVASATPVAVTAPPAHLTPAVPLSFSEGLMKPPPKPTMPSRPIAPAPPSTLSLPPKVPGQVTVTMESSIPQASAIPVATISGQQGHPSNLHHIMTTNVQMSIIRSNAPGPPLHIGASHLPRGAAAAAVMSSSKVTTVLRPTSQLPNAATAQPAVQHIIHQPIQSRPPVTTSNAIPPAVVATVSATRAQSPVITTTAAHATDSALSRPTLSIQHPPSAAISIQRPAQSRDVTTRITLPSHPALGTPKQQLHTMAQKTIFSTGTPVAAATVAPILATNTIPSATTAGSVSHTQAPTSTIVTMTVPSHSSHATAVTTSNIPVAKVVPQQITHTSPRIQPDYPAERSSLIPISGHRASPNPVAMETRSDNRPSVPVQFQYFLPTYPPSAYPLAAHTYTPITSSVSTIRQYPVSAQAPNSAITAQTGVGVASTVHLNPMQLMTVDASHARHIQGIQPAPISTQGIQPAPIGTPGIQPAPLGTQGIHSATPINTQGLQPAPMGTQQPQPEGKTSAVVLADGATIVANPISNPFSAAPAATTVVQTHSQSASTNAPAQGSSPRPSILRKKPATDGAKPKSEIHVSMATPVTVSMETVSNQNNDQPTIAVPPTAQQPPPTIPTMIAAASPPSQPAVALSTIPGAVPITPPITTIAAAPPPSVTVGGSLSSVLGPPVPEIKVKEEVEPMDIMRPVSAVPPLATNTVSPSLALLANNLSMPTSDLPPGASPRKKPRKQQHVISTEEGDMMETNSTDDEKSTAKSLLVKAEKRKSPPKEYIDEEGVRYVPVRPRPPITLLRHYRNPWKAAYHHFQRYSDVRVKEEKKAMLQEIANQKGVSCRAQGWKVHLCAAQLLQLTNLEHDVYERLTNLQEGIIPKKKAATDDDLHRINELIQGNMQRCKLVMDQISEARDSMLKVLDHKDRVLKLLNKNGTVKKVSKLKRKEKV
# UniProt Q9H8V3: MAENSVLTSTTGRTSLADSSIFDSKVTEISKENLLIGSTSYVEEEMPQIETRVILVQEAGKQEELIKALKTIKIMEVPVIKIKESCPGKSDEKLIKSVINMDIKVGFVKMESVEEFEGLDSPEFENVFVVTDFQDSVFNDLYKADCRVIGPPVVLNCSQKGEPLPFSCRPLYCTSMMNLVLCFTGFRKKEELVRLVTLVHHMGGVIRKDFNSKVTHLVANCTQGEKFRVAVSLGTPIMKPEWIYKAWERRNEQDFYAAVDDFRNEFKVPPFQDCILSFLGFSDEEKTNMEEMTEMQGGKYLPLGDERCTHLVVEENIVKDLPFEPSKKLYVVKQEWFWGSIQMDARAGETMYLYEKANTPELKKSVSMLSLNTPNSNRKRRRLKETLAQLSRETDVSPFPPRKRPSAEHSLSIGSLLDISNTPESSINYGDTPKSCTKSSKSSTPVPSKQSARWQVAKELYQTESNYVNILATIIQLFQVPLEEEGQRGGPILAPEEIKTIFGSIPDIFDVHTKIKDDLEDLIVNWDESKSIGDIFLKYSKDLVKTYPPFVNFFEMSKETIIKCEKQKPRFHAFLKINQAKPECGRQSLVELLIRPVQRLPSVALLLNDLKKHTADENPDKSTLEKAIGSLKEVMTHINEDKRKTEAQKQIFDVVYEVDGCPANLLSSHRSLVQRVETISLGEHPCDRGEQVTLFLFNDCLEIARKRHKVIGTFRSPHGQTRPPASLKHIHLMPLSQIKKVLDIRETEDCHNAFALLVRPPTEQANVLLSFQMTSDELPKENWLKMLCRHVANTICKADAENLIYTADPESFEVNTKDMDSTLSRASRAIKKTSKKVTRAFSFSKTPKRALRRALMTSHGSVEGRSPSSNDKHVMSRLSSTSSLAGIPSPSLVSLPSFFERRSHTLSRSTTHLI
# UniProt Q9H0V9: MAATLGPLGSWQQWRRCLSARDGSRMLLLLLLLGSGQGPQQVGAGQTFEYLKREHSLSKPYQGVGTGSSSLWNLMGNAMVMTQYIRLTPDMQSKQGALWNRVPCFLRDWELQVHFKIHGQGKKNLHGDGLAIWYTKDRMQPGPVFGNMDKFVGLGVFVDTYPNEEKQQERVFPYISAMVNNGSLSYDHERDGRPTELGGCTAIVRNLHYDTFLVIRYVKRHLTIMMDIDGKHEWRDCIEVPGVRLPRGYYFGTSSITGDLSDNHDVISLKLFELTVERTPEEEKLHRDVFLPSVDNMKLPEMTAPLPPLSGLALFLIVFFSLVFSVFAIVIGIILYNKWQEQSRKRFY
# UniProt Q9H425: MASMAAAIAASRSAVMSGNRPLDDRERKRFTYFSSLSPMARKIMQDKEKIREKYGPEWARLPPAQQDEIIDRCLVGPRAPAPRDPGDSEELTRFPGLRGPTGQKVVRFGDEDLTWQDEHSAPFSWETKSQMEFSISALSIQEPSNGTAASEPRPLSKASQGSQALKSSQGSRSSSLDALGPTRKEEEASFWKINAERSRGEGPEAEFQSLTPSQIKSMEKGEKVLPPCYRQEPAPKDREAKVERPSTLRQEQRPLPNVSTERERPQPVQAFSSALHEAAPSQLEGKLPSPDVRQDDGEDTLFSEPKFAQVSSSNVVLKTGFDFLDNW
# Some of the results follow. Single values of this set are uncertain.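 Many melting curves are irregular; where none melted, Tm was taken as 64 °C.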
# Compound: CCc1cnccc1C(=O)Nc1cc2c(cc1F)NC(=O)CC2
# Assay: melting temperature shift (DMSO Tm minus MBE1-treated Tm) in cellular thermal proteome profiling; higher = less thermal stabilization by MBE1 (negative = stabilized by MBE1)
# Settings: A375; MBE1 concentration: 100 nM
row,Target,melting temperature shift [°C]
1,DPH5 (UniProt Q9H2P9),-0.281
2,CCDC134 (UniProt Q9H6E4),-1.73
3,UniProt Q9H869,-0.0384
4,UniProt Q9BZL4,-0.884
5,UACA (UniProt Q9BZF9),-1.42
6,PNN (UniProt Q9H307),-1.55
7,UniProt Q9H4W6,-0.355
8,UniProt Q9H2J7,-1.96
9,WDR61 (UniProt Q9GZS3),1.8
10,KIF13A (UniProt Q9H1H9),1.21
11,NAT10 (UniProt Q9H0A0),-0.301
12,UBE2O (UniProt Q9C0C9),0.592
13,UBA5 (UniProt Q9GZZ9),-0.49
14,UniProt Q9H2Y7,-0.583
15,UniProt Q9H1A3,0.08
16,FRMD8 (UniProt Q9BZ67),1.8
17,PAIP1 (UniProt Q9H074),-0.63
18,POFUT1 (UniProt Q9H488),-1.61
19,GAN (UniProt Q9H2C0),0.805

row,Target,melting temperature shift [°C]
1,DHX36 (UniProt Q9H2U1),1.34
2,SMG9 (UniProt Q9H0W8),-0.311
3,BOLA2 (UniProt Q9H3K6),-0.0402
4,UniProt Q9GZX9,-5.61
5,SAP130 (UniProt Q9H0E3),-0.91
6,ECT2 (UniProt Q9H8V3),-0.705
7,SLIRP (UniProt Q9GZT3),-0.327
8,C11ORF54 (UniProt Q9H0W9),0.0378
9,PEAK1 (UniProt Q9H792),-0.143
10,TSPYL1 (UniProt Q9H0U9),-0.278
11,UNC93B1 (UniProt Q9H1C4),-0.416
12,PARD6B (UniProt Q9BYG5),0.861
13,OSBPL5 (UniProt Q9H0X9),-0.476
14,UniProt Q9H5J8,0.787
15,LMAN2L (UniProt Q9H0V9),0.771
16,UniProt Q9H4B6,-1.17
17,C1ORF198 (UniProt Q9H425),-2.57
18,TANC1 (UniProt Q9C0D5),-0.0847
19,TRABD (UniProt Q9H4I3),-0.801

# Same assay, conditions: A375; MBE1 concentration: 1 uM
row,Target,melting temperature shift [°C]
1,DPH5 (UniProt Q9H2P9),1.28
2,CCDC134 (UniProt Q9H6E4),0.158
3,UniProt Q9H869,-0.25
4,UniProt Q9BZL4,-0.828
5,UACA (UniProt Q9BZF9),-0.429
6,PNN (UniProt Q9H307),-0.382
7,UniProt Q9H4W6,0.235
8,UniProt Q9H2J7,-0.543
9,WDR61 (UniProt Q9GZS3),1.96
10,KIF13A (UniProt Q9H1H9),0.8
11,NAT10 (UniProt Q9H0A0),0.047
12,UBE2O (UniProt Q9C0C9),0.415
13,UBA5 (UniProt Q9GZZ9),0.235
14,UniProt Q9H2Y7,-0.653
15,UniProt Q9H1A3,0.104
16,FRMD8 (UniProt Q9BZ67),1.32
17,PAIP1 (UniProt Q9H074),-0.161
18,POFUT1 (UniProt Q9H488),-0.777
19,GAN (UniProt Q9H2C0),2.82

row,Target,melting temperature shift [°C]
1,DHX36 (UniProt Q9H2U1),0.922
2,SMG9 (UniProt Q9H0W8),-0.82
3,BOLA2 (UniProt Q9H3K6),-0.624
4,UniProt Q9GZX9,-7.58
5,SAP130 (UniProt Q9H0E3),-0.311
6,ECT2 (UniProt Q9H8V3),-0.0577
7,SLIRP (UniProt Q9GZT3),-0.423
8,C11ORF54 (UniProt Q9H0W9),-1.11
9,PEAK1 (UniProt Q9H792),0.748
10,TSPYL1 (UniProt Q9H0U9),-0.378
11,UNC93B1 (UniProt Q9H1C4),0.912
12,PARD6B (UniProt Q9BYG5),0.623
13,OSBPL5 (UniProt Q9H0X9),4.1
14,UniProt Q9H5J8,0.574
15,LMAN2L (UniProt Q9H0V9),1.5
16,UniProt Q9H4B6,-2.41
17,C1ORF198 (UniProt Q9H425),-1.89
18,TANC1 (UniProt Q9C0D5),0.0376
19,TRABD (UniProt Q9H4I3),0.0183
